Results are given in words; binding and its absence hold for the method and conditions named. In cells and extracts the contact can be indirect. Some results given as binding are weak or reduced against the parent protein; the word gives no strength.

Chains of the proteins cited; added tags and fusions are not shown. Residues count along the entry.
UniProt P09055, residues 21-798: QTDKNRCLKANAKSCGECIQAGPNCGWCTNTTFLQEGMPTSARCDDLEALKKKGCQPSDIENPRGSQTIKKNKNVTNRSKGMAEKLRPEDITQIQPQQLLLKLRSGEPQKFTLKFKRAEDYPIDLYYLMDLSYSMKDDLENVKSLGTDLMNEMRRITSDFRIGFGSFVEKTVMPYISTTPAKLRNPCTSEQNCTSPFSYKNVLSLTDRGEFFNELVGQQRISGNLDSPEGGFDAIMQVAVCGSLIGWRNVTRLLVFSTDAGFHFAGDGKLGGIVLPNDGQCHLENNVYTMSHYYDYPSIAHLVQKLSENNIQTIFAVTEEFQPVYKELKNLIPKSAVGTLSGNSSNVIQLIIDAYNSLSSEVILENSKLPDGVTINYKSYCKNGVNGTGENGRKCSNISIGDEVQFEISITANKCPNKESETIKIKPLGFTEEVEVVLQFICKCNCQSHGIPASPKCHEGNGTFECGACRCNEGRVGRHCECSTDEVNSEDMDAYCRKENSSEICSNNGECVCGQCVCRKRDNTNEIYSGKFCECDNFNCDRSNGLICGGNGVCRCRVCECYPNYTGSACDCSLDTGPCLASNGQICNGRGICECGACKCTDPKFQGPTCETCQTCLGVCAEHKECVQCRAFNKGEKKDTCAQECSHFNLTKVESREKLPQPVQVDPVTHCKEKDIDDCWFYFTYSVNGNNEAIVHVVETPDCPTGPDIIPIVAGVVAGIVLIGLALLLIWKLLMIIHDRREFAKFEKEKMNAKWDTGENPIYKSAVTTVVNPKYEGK
UniProt Q9QUK6, residues 26-835: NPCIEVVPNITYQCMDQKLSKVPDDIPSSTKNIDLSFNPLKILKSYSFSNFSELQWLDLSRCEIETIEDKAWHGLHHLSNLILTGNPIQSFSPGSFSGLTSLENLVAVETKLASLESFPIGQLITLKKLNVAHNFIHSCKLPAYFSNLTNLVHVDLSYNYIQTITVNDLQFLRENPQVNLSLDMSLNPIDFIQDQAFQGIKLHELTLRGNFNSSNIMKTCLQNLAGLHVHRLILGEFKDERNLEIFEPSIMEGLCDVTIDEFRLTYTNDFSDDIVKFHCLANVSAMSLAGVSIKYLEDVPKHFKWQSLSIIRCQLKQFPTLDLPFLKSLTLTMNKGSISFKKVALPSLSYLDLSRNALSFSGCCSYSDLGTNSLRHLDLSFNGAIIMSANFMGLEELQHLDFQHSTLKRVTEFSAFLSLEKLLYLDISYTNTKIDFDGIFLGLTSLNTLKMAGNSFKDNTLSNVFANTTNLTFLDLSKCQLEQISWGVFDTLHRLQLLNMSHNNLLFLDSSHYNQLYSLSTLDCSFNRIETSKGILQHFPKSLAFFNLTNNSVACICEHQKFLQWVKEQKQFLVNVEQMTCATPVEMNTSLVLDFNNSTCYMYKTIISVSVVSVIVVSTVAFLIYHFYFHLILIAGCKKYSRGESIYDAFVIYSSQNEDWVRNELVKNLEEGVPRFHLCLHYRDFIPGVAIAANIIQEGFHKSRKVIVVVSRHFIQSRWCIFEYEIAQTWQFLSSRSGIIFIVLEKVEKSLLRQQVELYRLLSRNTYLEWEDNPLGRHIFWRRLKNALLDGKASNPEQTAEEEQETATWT

This assay addresses integrin β1 (cluster of differentiation 29, CD29) (mouse (endogenous in peritoneal macrophages)) (UniProt P09055). Briefly: FRET or BRET; acceptor-photobleaching FRET by laser confocal microscopy on mouse peritoneal macrophages on coverslips; AF488-conjugated TLR4 or TLR2 antibody (donor) and AF594-conjugated integrin β1 antibody (acceptor), 1:200, 37°C; cells fixed with 3.7% paraformaldehyde; cells treated with LPS (TLR4) or PGN (TLR2), with or without FN. A general note: BRET reads energy transfer from a luciferase to a nearby fluorophore.

Regarding “toll-like receptor 4 (TLR4) (from UniProt Q9QUK6 26-835)”, the binding result is recorded as “binds”.
